Measurements reported in PubChem BioAssay AID504791 (Drosophila RNAi Screening Center, 2011)
The deposit covers about 23,000 reagents; shown is an unselected part of those that have a named target and a result. Over the whole deposit, 199 (0.86%) were called active. 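Plate-scaled ratios behind the calls are not deposited; printed light signals are raw; many rows marked increased or decreased are still called inactive.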 A plus sign joins genes that one reagent is predicted to hit. Not given: the direction of the score.

- Assay: 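Factors in Argonaute-based small RNA production and activity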 (primary screen)
- Cell system: Drosophila S2-derived reporter cells
- Reagent: long dsRNA against Drosophila genes, about 150-250 ng dsRNA per well (siRNA assay); about 80-120 ng (miRNA assay)
- Time to read-out: about 5 days (siRNA assay); about 4 days (miRNA assay)
- Treatment: copper sulfate induction of reporters: 25 µM (siRNA assay); 200 mM stated (miRNA assay), 1-2 days before reading
- Measured: 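Per-well ratio of Renilla over firefly light, expressed relative to that plate's average ratio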
- Rule for the call: 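First-pass picks had plate-scaled ratios over 1.5 for the siRNA assay, over 1.6 for the miRNA assay, or under 0.6; two distinct dsRNAs had to score alike on retest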

After knock-down of CG10839 [DRSC01965], the record shows stable assay Renilla, run 1 (luminescence) = 7739; stable assay firefly, run 1 (luminescence) = 3.62e5; inactive.
With knock-down of flip [DRSC12326], the screen gave stable assay Renilla, run 1 (luminescence) = 6523; stable assay firefly, run 1 (luminescence) = 3.16e5; inactive.
Silencing of beat-Ib [DRSC03490] came out at: stable assay Renilla, run 1 (luminescence) = 8106; stable assay firefly, run 1 (luminescence) = 3.87e5; inactive.
Silencing of CG42299 + CG42300 [DRSC19680] came out at: stable assay Renilla, run 1 (luminescence) = 6110; stable assay firefly, run 1 (luminescence) = 4.49e5; inactive.
CG42299 + CG42300 [DRSC19815] showed stable assay Renilla, run 1 (luminescence) = 5443; stable assay firefly, run 1 (luminescence) = 4.41e5; inactive.
CG9643 [DRSC00722] showed stable assay Renilla, run 1 (luminescence) = 7747; stable assay firefly, run 1 (luminescence) = 5.15e5; inactive.
Against Ca-beta [DRSC02406], the values are stable assay Renilla, run 1 (luminescence) = 6767; stable assay firefly, run 1 (luminescence) = 3.61e5; inactive.
Silencing of Ca-beta [DRSC02407] came out at: stable assay Renilla, run 1 (luminescence) = 6699; stable assay firefly, run 1 (luminescence) = 3.99e5; inactive.
Silencing of Ca-beta [DRSC03285] came out at: stable assay Renilla, run 1 (luminescence) = 5554; stable assay firefly, run 1 (luminescence) = 5.05e5; inactive.
With knock-down of Ca-beta [DRSC21432] the results were stable assay Renilla, run 1 (luminescence) = 8708; stable assay firefly, run 1 (luminescence) = 4.38e5; inactive.
Pal1 + Pdrg1 [DRSC06587] showed stable assay Renilla, run 1 (luminescence) = 5891; stable assay firefly, run 1 (luminescence) = 4.03e5; inactive.
After knock-down of CG8399 [DRSC07163], the record shows stable assay Renilla, run 1 (luminescence) = 12107; stable assay firefly, run 1 (luminescence) = 4.31e5; inactive.

As entered above.
For “stable assay Renilla, run 1 (luminescence)”, Ca-beta [DRSC03285] is entered as 5554
Result of Ca-beta [DRSC02407] under “Outcome”: inactive
Result for CG42299 + CG42300 [DRSC19815] in “Outcome”: inactive

More entries:
After knock-down of ana [DRSC07579] the results were stable assay Renilla, run 1 (luminescence) = 7632; stable assay firefly, run 1 (luminescence) = 4.20e5; inactive.
Depletion of mEFTu2 [DRSC06163] came out at: stable assay Renilla, run 1 (luminescence) = 28984; stable assay firefly, run 1 (luminescence) = 2.35e6; inactive.
CG15711 [DRSC06582] showed stable assay Renilla, run 1 (luminescence) = 6027; stable assay firefly, run 1 (luminescence) = 2.47e5; inactive.
Silencing of Prp6 [DRSC10724] gave: stable assay Renilla, run 1 (luminescence) = 5199; stable assay firefly, run 1 (luminescence) = 4.97e5; inactive.
For Prp6 [DRSC21773] the deposit lists stable assay Renilla, run 1 (luminescence) = 10612; stable assay firefly, run 1 (luminescence) = 4.17e5; inactive.
For ZnT86D [DRSC16091] the deposit lists stable assay Renilla, run 1 (luminescence) = 6031; stable assay firefly, run 1 (luminescence) = 3.55e5; inactive.
Knock-down of Nipped-A [DRSC04882] gave: stable assay Renilla, run 1 (luminescence) = 72582; stable assay firefly, run 1 (luminescence) = 1.29e6; inactive.
Knock-down of Nipped-A [DRSC04883] resulted in: stable siRNA reporter change reporter ratio lowered past the hit cutoff; stable assay Renilla, run 1 (luminescence) = 6134; stable assay firefly, run 1 (luminescence) = 7.80e5; active.
Knock-down of Nipped-A [DRSC04884] resulted in: stable assay Renilla, run 1 (luminescence) = 5492; stable assay firefly, run 1 (luminescence) = 4.82e5; inactive.
For Nipped-A [DRSC07738] the deposit lists stable siRNA reporter change reporter ratio lowered past the hit cutoff; stable assay Renilla, run 1 (luminescence) = 4879; stable assay firefly, run 1 (luminescence) = 4.85e5; inactive.
After knock-down of Nipped-A [DRSC22386], the record shows stable siRNA reporter change reporter ratio lowered past the hit cutoff; stable assay Renilla, run 1 (luminescence) = 8485; stable assay firefly, run 1 (luminescence) = 8.38e5; active.
